Common to all, as to format: cell-based
The target in assay [1] is T1, human H4R T99A mutant (Homo sapiens, UniProt Q9H3N8, T99A).
T1 construct: a mutant H4R (human, full-length, and untagged); expressed in transfected cells; host or cells: HEK293A
Kind of assay: TGFα shedding assay, H4R T99A mutant. As for the experimental part:
(§1) The mutants were prepared using the primers listed in Supplementary Table 2. […] The chimeric Gαq/i1 subunit comprises the Gαq backbone and Gαi1-derived six-amino acid C-terminus and couples with Gi-coupled H4R but induces a Gq-dependent TGFα shedding response. After culturing for 1 day and incubating at 37 °C in a 5% CO2 incubator, the transfected cells were harvested by trypsinization, neutralized with Dulbecco’s modified Eagle’s medium containing 10% fetal calf serum (FCS) and penicillin–streptomycin, washed once with Hank’s balanced salt solution (HBSS) containing 5 mM of HEPES (pH 7.4), and resuspended in 6 mL of the HEPES-containing HBSS. The cell suspension was seeded into a 96-well plate at a volume of […] per well (typically, 48 wells per transfected cells) and incubated for 30 min in the CO2 incubator. Test compounds (10×, diluted in 0.01% BSA and 5 mM of HEPES-containing HBSS, […] volume) were added to duplicate wells and incubated for 1 h. After centrifugation, the conditioned medium ([…]) was transferred to an empty 96-well plate. AP reaction solution [10 mM of p-nitrophenylphosphate (p-NPP), 120 mM of Tris–HCl (pH 9.5), 40 mM of NaCl, and 10 mM of MgCl2] was dispensed into the cell culture plates and plates containing conditioned media ([…]). Absorbance was measured at 405 nm before and after a 1-h incubation period at 25 °C using a microplate reader (iMark™ Microplate Absorbance Reader; BioRad). Ligand-induced AP-TGFα release was calculated as previously described. The vehicle-treated AP-TGFα release signal was set as a baseline unless otherwise specified. AP-TGFα release signals were fitted with a four-parameter sigmoidal concentration-response curve, from which EC50 and Emax values were obtained, using GraphPad Prism 9 software (GraphPad Prism). Negative values of logarithmically transformed EC50 values (pEC50) were used to calculate the mean and standard error of independent experiments.
(§2) All functional study data were analyzed using Prism 9 (GraphPad) and are presented as mean ± standard error of the mean (SEM) of three independent experiments. Statistical analyses were performed using Prism 9 (GraphPad) with one-way analysis of variance followed by Dunnett’s post-hoc test. Values with p < 0.05 are considered statistically significant.

Amino acid sequences for entries named in this document (tags omitted).
UniProt Q9H3N8, whole entry T99A: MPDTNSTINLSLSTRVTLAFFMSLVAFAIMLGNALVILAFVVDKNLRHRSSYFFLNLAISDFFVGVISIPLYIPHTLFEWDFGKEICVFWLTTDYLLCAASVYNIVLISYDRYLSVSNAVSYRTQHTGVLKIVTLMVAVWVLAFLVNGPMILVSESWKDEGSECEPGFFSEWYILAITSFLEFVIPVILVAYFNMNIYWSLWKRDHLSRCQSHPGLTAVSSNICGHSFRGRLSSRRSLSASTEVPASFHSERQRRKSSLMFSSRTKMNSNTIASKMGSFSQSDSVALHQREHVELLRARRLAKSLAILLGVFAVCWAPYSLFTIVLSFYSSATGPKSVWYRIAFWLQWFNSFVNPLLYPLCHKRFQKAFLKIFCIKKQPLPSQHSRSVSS
UniProt Q9H3N8, whole entry Y95A: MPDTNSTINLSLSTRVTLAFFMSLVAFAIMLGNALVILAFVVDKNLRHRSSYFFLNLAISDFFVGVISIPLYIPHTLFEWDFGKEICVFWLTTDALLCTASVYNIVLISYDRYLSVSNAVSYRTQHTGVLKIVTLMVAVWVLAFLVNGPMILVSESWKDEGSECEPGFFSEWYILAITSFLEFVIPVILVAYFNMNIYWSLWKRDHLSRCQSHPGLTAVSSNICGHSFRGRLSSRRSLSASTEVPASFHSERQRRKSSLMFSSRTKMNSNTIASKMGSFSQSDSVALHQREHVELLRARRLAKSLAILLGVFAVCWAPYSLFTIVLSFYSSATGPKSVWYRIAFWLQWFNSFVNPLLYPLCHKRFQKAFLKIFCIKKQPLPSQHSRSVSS
UniProt Q9H3N8, whole entry W348A: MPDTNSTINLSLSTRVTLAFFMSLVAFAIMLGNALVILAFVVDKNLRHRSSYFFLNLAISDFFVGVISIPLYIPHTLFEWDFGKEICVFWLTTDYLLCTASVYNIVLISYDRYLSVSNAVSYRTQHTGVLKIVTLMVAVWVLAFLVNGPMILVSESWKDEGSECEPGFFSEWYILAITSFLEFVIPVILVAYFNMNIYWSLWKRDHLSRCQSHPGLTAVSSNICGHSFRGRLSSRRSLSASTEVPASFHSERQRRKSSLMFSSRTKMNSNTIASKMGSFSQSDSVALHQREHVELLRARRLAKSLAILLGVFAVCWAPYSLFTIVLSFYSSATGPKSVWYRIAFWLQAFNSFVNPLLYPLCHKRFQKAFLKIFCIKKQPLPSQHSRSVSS
UniProt Q9H3N8, whole entry Q347G: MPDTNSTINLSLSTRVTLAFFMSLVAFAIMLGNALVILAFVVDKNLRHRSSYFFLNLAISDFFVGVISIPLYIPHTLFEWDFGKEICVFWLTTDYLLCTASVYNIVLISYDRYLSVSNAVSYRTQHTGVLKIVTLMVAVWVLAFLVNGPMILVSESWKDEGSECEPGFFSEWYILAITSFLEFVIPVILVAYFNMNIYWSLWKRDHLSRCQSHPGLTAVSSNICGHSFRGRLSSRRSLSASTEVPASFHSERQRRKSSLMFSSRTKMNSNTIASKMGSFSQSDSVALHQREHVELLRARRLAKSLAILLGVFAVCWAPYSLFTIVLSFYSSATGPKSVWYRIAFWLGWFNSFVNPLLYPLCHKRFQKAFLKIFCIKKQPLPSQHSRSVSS
UniProt Q9H3N8, whole entry F344I: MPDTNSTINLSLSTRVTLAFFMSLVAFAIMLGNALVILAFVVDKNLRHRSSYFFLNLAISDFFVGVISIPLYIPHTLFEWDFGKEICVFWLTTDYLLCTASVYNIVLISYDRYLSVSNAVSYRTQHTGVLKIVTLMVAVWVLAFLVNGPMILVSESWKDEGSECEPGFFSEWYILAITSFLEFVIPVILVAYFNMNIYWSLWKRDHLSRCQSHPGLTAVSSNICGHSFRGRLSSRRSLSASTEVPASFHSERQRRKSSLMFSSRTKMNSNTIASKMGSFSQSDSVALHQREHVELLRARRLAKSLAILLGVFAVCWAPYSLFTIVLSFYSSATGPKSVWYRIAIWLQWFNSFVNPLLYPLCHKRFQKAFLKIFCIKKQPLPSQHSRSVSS

Assay [2] addresses T2, human wild-type H4R (Homo sapiens, UniProt Q9H3N8).
T2 construct: a mutant H4R (human, full-length, and untagged); expressed in transfected cells; host or cells: HEK293A
Briefly: TGFα shedding assay, wild-type H4R. The settings on record: WT, raw replicates. As for the experimental part: as §1, §2

Assay [3] concerns the target T3, human H4R Y95A mutant (Homo sapiens, UniProt Q9H3N8, Y95A).
T3 construct: a mutant H4R (human, full-length, and untagged); expressed in transfected cells; host or cells: HEK293A
Briefly: TGFα shedding assay, H4R Y95A mutant. How it is done:
as §1, §2

For assay [4], the target named is T4, human H4R W348A mutant (Homo sapiens, UniProt Q9H3N8, W348A).
T4 construct: a mutant H4R (human, full-length, and untagged); expressed in transfected cells; host or cells: HEK293A
Kind of assay: TGFα shedding assay, H4R W348A mutant. As for the experimental part: as §1, §2

The target in assay [5] is T5, human H4R Q347G mutant (Homo sapiens, UniProt Q9H3N8, Q347G).
T5 construct: a mutant H4R (human, full-length, and untagged); expressed in transfected cells; host or cells: HEK293A
Briefly: TGFα shedding assay, H4R Q347G mutant. The settings on record: Histamine (M) -7, raw replicates. How it is done:
The mutants were prepared using the primers listed in Supplementary Table 2. […] The chimeric Gαq/i1 subunit comprises the Gαq backbone and Gαi1-derived six-amino acid C-terminus and couples with Gi-coupled H4R but induces a Gq-dependent TGFα shedding response. After culturing for 1 day and incubating at 37 °C in a 5% CO2 incubator, the transfected cells were harvested by trypsinization, neutralized with Dulbecco’s modified Eagle’s medium containing 10% fetal calf serum (FCS) and penicillin–streptomycin, washed once with Hank’s balanced salt solution (HBSS) containing 5 mM of HEPES (pH 7.4), and resuspended in 6 mL of the HEPES-containing HBSS. The cell suspension was seeded into a 96-well plate at a volume of […] per well (typically, 48 wells per transfected cells) and incubated for 30 min in the CO2 incubator. Test compounds (10×, diluted in 0.01% BSA and 5 mM of HEPES-containing HBSS, […] volume) were added to duplicate wells and incubated for 1 h. […] Absorbance was measured at 405 nm before and after a 1-h incubation period at 25 °C using a microplate reader (iMark™ Microplate Absorbance Reader; BioRad). Ligand-induced AP-TGFα release was calculated as previously described. […]
All functional study data were analyzed using Prism 9 (GraphPad) and are presented as mean ± standard error of the mean (SEM) of three independent experiments. […]

The target of assay [6] is T6, human H4R F344I mutant (Homo sapiens, UniProt Q9H3N8, F344I).
T6 construct: a mutant H4R (human, full-length, and untagged); expressed in transfected cells; host or cells: HEK293A
Kind of assay: TGFα shedding assay, H4R F344I mutant. As for the experimental part: as §1, §2

Setting [7] is: Histamine (M) -9, raw replicates.
Setting [8] is: Histamine (M) -10, raw replicates.
Where [9] appears, read: Histamine (M) -5, raw replicates.
Setting [10] is: Histamine (M) -6, raw replicates.
The mark [11] stands for this setting: Histamine (M) -7, raw replicates.
The mark [12] stands for this setting: Histamine (M) -8, raw replicates.

Data on 1 compound can be found in publication PMC10589313 (Nature Communications, 2023).

Values joined by “and” are separate entries in the source; they are usually repeats but may differ in a detail not shown here. Identical values can stand only once. The source gives many values for each of these; only a part stands here.

Turning to `NCCc1c[nH]cn1` [Histamine, histamine], the Shedding assay in assay [1] (setting [7]) was -2.9591 and 3.985 and -1.556 and 2.388 and -1.793 and 1.392 and -1.415 and -0.5215 and -1.893; in assay [1] (setting [8]), -1.542 and -5.2111 and -5.302 and 1.645 and -0.2888 and 1.08 and -2.176 and -1.164 and -2.05; in assay [2] (Histamine (M) -5), 13.4317 and 20.1507 and 20.5166 and 22.0896 and 22.8765 and 20.6545 and 18.8786 and 23.132 and 15.2758; in assay [2] (Histamine (M) -6) it was 13.5445 and 19.6346 and 13.4371 and 20.4676 and 20.7552 and 19.7471 and 18.1598 and 26.3691 and 11.4508; in assay [2] (Histamine (M) -7), 6.4045 and 14.0667 and 9.796 and 14.9021 and 15.4382 and 15.7515 and 12.6686 and 19.7118 and 5.431; in assay [2] (Histamine (M) -8) it was 0.9367 and 6.063 and 1.876 and 5.768 and 5.352 and 6.224 and -1.741 and 8.453 and 5.4087. Further, the Shedding assay in assay [2] (Histamine (M) -9) is -1.421 and 2.5994 and 1.097 and 1.42 and 0.9948 and 0.8499 and 0.3332 and 2.711 and 0.08921; in assay [2] (Histamine (M) -10) it was -1.238 and 1.128 and 0.1186 and 0.7386 and 2.154 and 1.724 and -0.1425 and 2.261 and -2.819; in assay [3] (setting [9]) it was 6.183 and 5.172 and 7.902 and 6.184 and 3.683 and 11.5556 and 7.447 and 8.205 and 7.387; in assay [3] (setting [10]), 1.605 and 0.1712 and 3.752 and 0.9166 and 2.1167 and -4.444 and 1.447 and 4.174 and 3.275; in assay [3] (setting [11]), -0.832 and -2.636 and 0.9201 and -0.7225 and 0.7174 and -7.161 and -2.328 and -0.0448 and -1.764; in assay [3] (setting [12]), -0.08522 and -3.264 and 0.6026 and 0.1509 and -0.7574 and 3.166 and -0.5372 and -3.942 and 0.5003. Moreover, the Shedding assay in assay [3] (setting [7]) was -0.9628 and -6.759 and -1.743 and -2.7401 and -1.392 and 1.984 and -1.957 and -0.3227 and -0.9256; in assay [3] (setting [8]), 0.8876 and -2.531 and 0.9123 and -1.685 and 1.324 and 3.171 and -0.6723 and -2.186 and 1.209; in assay [4] (setting [9]) it was -1.057 and -1.728 and -1.2585 and -3.089 and -1.722 and -4.5 and -3.352 and -1.3761 and -8.25; in assay [4] (setting [10]), -2.292 and -2.489 and -0.6216 and -2.991 and -0.08349 and -0.2948 and -2.144 and 0.9549 and -2.963; in assay [4] (setting [11]), -1.516 and -1.642 and -0.6932 and -1.293 and -0.9031 and 0.6174 and -1.2265 and 0.5412 and -0.9522; in assay [4] (setting [12]), -1.124 and -1.667 and -0.8149 and -0.3537 and 0.01935 and -0.04211 and -1.625 and 0.2255 and -0.6824. Further, the Shedding assay in assay [4] (setting [7]) was -2.158 and -4.533 and -0.9578 and -1.6056 and -5.905 and 0.1779 and -1.472 and -4.38 and -0.2096; in assay [4] (setting [8]) it was 0.08794 and -2.963 and 0.4861 and 0.4455 and -4.815 and 0.1242 and -0.1099 and -3.399 and 0.01815; in assay [5] it was -0.01685 and -1.089 and 2.702 and -1.376 and 1.055 and -0.05576 and -0.04058 and -11.1736; in assay [6] (setting [9]), -0.902 and -0.07517 and -1.082 and -2.037 and -2.467 and -0.7903 and -2.85 and -2.964 and -2.035; in assay [6] (setting [10]) it was -4.329 and -2.061 and -2.965 and -2.333 and -3.283 and -2.172 and -3.151 and -2.581 and -2.271.
